Measurements taken from the supplement of paper PMC8616043.
Values joined by “and” are separate entries in the source; they are usually repeats but may differ in a detail not shown here. Equal values may be shown once. Where a name gives a salt, the structure may show the parent alone. This is one part of the list. Repeats in this data set agree poorly, so a single value says little.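 The cells are human U-2 OS cells that stably carry a GFP sensor with a nuclear import signal and a classical export signal. They were transfected to make PR50, a 50-repeat proline–arginine dipeptide protein from the ALS/FTD gene C9ORF72. Each well's nuclear-minus-cytoplasm GFP signal was scaled from in-plate DMSO (low) to PR-only wells (high), then scored against the other test wells on the plate; compounds scoring well below zero were called hits that reverse the PR effect.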

tested on: U-2 OS NCT-C biosensor cells expressing PR50; test: Z-score of normalised NCT-C biosensor translocation index in PR50-expressing cells; higher = more nuclear biosensor (more disrupted nuclear export); settings: 3 µM; 24 h

| Compound | Z-score |
| --- | --- |
| CCC1(C)CC(=O)NC1=O (configuration not stated) [Ethosuximide] | inactive: 0.394 |
| NC[C@@H]1O[C@H](O[C@H]2[C@@H](O)[C@H](O[C@@H]3[C@@H](O)[C@H](N)C[C@H](N)[C@H]3O[C@H]3O[C@H](CN)[C@@H](O)[C@H](O)[C@H]3N)O[C@@H]2CO)[C@H](N)[C@@H](O)[C@@H]1O [Neomycin] | inactive: -0.244 |
| Cc1c(C(=O)N2CCOc3ccc(-c4ccc(N)nc4)cc3C2)ccc(S(C)(=O)=O)c1F | inactive: -0.272 |
| OC[C@H]1NC[C@@H](O)[C@@H]1O [1,4-Dideoxy-1,4- imino-D-arabinitol] | inactive: 0.385 |
| COc1cc2nc(N3CCCN(C)CC3)nc(NC3CCN(Cc4ccccc4)CC3)c2cc1OC | inactive: 0.0856 and inactive: 0.459 |
| CN(C)CCCc1cc(C(=O)Nc2ccc(-c3ccncc3)cc2)ccc1O | inactive: 0.589 |
| NC1CONC1=O (racemic) [DL-Cycloserine] | inactive: -0.304 |
| CCc1nn(CCCN2CCN(c3cccc(Cl)c3)CC2)c(=O)n1CCOc1ccccc1 [Nefazodone·HCl] | inactive: -0.445 |
| O=C1c2c(O)ccc(O)c2C(=O)c2c(NCCNCCO)ccc(NCCNCCO)c21 [Mitoxantrone·2HCl] | inactive: -0.0496 |
| O=C1c2c(O)ccc(O)c2C(=O)c2c(NCCNCCO)ccc(NCCNCCO)c21 [Mitoxantrone dihydrochloride] | inactive: -0.538 |
| CCOC(=O)C1=C(C)NC(C)=C(C(=O)OC)C1c1cccc(Cl)c1Cl (configuration not stated) [Felodipine] | inactive: -0.333 |
| Cc1nc2sccn2c(=O)c1CCN1CCC(=C(c2ccc(F)cc2)c2ccc(F)cc2)CC1 [Ritanserin] | inactive: -1.21 |
| CC(C)(C)NC[C@H](O)COc1cccc2c1CCCC2=O [Levobunolol·HCl] | inactive: 0.303 |
| C[N+](C)(C)CCOC(N)=O [Carbachol (Carbamylcholine ) Chloride] | inactive: -0.295 |
| C[N+](C)(C)CCOC(N)=O [Carbachol] | inactive: 0.384 |
| COC(=O)[C@H]1[C@H]2C[C@H]3c4[nH]c5cc(OC)ccc5c4CCN3C[C@H]2C[C@@H](OC(=O)c2cc(OC)c(OC)c(OC)c2)[C@@H]1OC [(-)-Isoreserpine] | inactive: 0.0047 |
| CCN1C(=O)C=CC1=O [N-Ethylmaleimide] | inactive: -0.0482 |
| CCCC(=O)NCCc1csc(-c2ccc(Cl)cc2)n1 [Azoramide] | inactive: 0.889 |
| CN(C)CCc1c[nH]c2ccc(CS(=O)(=O)N3CCCC3)cc12 [Almotriptan malate] | inactive: -0.135 |
| CN1CCN2c3ccccc3Cc3ccccc3C2C1 (configuration not stated) [Mianserin hydrochloride] | inactive: -0.486 |
| CCCCc1ncc(/C=C(\Cc2cccs2)C(=O)O)n1Cc1ccc(C(=O)O)cc1 [Eprosartan Mesylate] | inactive: 0.125 |
| CCCCc1ncc(/C=C(\Cc2cccs2)C(=O)O)n1Cc1ccc(C(=O)O)cc1 [Eprosartan mesylate] | inactive: -0.407 |
| N[C@@H](Cc1ccc(O)c(O)c1)C(=O)O [L-3,4-Dihydroxy phenylalanine] | inactive: -0.173 |

| Compound | Z-score |
| --- | --- |
| C[C@H]1[C@H](C)CC[C@]2(C(=O)O)CC[C@]3(C)C(=CC[C@@H]4[C@@]5(C)C[C@@H](O)[C@H](O)[C@@](C)(CO)[C@@H]5[C@H](O)C[C@]43C)[C@H]12 [Madecassic acid] | inactive: -0.602 |
| O=c1cc(N2CCOCC2)oc2c(-c3ccccc3)cccc12 [LY-294,002  hydrochloride] | inactive: -0.253 |
| CN1c2ccccc2C(=O)N2CCc3c([nH]c4ccccc34)C21 (stereo in doubt) [Evodiamine] | inactive: -0.538 |
| CC(C)NNC(=O)c1ccncc1 [Iproniazid phosphate] | inactive: 0.842 |
| O=C(O)c1cc(=O)c2ccccc2[nH]1 [Kynurenic acid] | inactive: -0.155 |
| C=CCNc1ncnc2ccc(Br)cc12 | inactive: 0.655 |
| C[C@H]1C(=O)CC[C@@H]2[C@]1(C)CC[C@H]1[C@@]2(C)CC[C@@]2(C)[C@@H]3CC(C)(C)CC[C@]3(C)CC[C@]12C [Friedelin] | inactive: -0.00806 |
| Cc1ccc(Nc2nccc(N(C)c3ccc4c(C)n(C)nc4c3)n2)cc1S(N)(=O)=O [Pazopanib·HCl] | inactive: 0.0363 |
| CCc1ccc(/C=C2/SC(=S)NC2=O)cc1 | inactive: 0.249 |
| CCC[C@@H]1C[C@@H](C(=O)N[C@@H]([C@H]2O[C@H](SC)[C@H](O)[C@@H](O)[C@H]2O)[C@@H](C)O)N(C)C1 [Lincomycin] | inactive: -0.329 |
| CCC[C@@H]1C[C@@H](C(=O)N[C@@H]([C@H]2O[C@H](SC)[C@H](O)[C@@H](O)[C@H]2O)[C@@H](C)O)N(C)C1 [Lincomycin·HCl monohydrate] | inactive: 2.32 |
| CO[C@H]1C[C@@H]2CC[C@@H](C)[C@@](O)(O2)C(=O)C(=O)N2CCCC[C@H]2C(=O)O[C@H]([C@H](C)C[C@@H]2CC[C@@H](OC(=O)C(C)(CO)CO)[C@H](OC)C2)CC(=O)[C@H](C)/C=C(\C)[C@@H](O)[C@@H](OC)C(=O)[C@H](C)C[C@H](C)/C=C/C=C/C=C/1C [Temsirolimus] | inactive: -0.533 |
| C#C[C@]1(O)CC[C@H]2[C@@H]3CCC4=Cc5oncc5C[C@]4(C)[C@H]3CC[C@@]21C [Danazol] | inactive: 0.292 |
| CC12CC3CC(C)(C1)CC(N)(C3)C2 [Memantine·HCl] | inactive: -0.999 |
| CC12CC3CC(C)(C1)CC(N)(C3)C2 [Memantine hydrochloride] | inactive: 0.0292 |
| O=C(O)c1cc2cc(F)ccc2[nH]1 [5-Fluoroindole-2- carboxylic acid] | inactive: -0.0667 |
| COc1ccc(-c2ccc3cc(C(=O)O)ccc3c2)cc1C12CC3CC(CC(C3)C1)C2 [Adapalene] | inactive: 0.367 |
| O=c1[nH]c(=O)n([C@H]2C[C@H](O)[C@@H](CO)O2)cc1I [Idoxuridine] | inactive: -0.0986 |
| N[C@@H](COP(=O)(O)O)C(=O)O [O-Phospho-L- serine] | inactive: 0.239 |
| O=C(O)c1cccnc1 [Niacin (Known As Vitamin B3, Nicotinic Acid And Vitamin Pp)] | inactive: -0.614 |
| CN1CCN(C2=Nc3ccccc3Cc3ccccc32)CC1 [Perlapine] | inactive: -0.156 |
| CCCCc1oc2ccccc2c1C(=O)c1cc(I)c(OCCN(CC)CC)c(I)c1 [Amiodarone hydrochloride] | inactive: -0.0266 |
| CCCCc1oc2ccccc2c1C(=O)c1cc(I)c(OCCN(CC)CC)c(I)c1 [Amiodarone·HCl] | inactive: 0.317 |

| Compound | Z-score |
| --- | --- |
| CC1(C)O[C@@H]2C[C@H]3[C@@H]4C[C@H](F)C5=CC(=O)CC[C@]5(C)[C@H]4[C@@H](O)C[C@]3(C)[C@]2(C(=O)CO)O1 [Flurandrenolide] | inactive: 0.301 |
| COc1ccc(Br)cc1S(=O)(=O)NC(=O)/C=C/c1ccccc1Cc1ccc2ccccc2c1 | inactive: -0.205 |
| COc1ccc(/C=C/c2cc(O)cc(O[C@@H]3O[C@H](CO)[C@@H](O)[C@H](O)[C@H]3O)c2)cc1O [Rhapontin] | inactive: 0.615 |
| NNC(=O)c1ccncc1 [Isoniazid] | inactive: 1.87 |
| CN(C(=O)CCCOc1ccc2[nH]c(=O)ccc2c1)C1CCCCC1 [Cilostamide] | inactive: 0.711 |
| CCCCCC(O)CCCC(=O)O (configuration not stated) [5-hydroxydecanoic acid sodium salt] | inactive: -0.394 |
| Nc1ncnc2c1ncn2C1CCCC1 [9-cyclopentyl adenine monomethanesulf onate] | inactive: -0.145 |
| O=C1NC(c2cccc([N+](=O)[O-])c2)=CCN1c1ccccc1O [Icilin] | inactive: -0.917 |
| CCCN(CC1CC1)c1nc(C)nc(Nc2c(Cl)cc(Cl)cc2Cl)c1Cl | inactive: 0.0258 |
| C[C@H](CS)C(=O)N1CCC[C@H]1C(=O)O [Captopril] | inactive: -0.038 |
| CC1(C)O[C@@H]2C[C@H]3[C@@H]4C[C@H](F)C5=CC(=O)C=C[C@]5(C)[C@H]4[C@@H](O)C[C@]3(C)[C@]2(C(=O)CO)O1 [Flunisolide] | inactive: -0.106 |
| Cc1c(-c2ccc(-c3ccccc3F)cc2)nc2ccc(F)cc2c1C(=O)O [Brequinar sodium salt hydrate] | inactive: 0.357 |
| NC(=O)c1ccccc1 [Benzamide] | inactive: -0.327 |
| COc1ccccc1CN[C@H]1CCCN[C@H]1c1ccccc1 | inactive: -0.491 |
| NC(N)=NC(N)=Nc1ccccc1 [1-Phenylbiguanide] | inactive: -0.697 |
| NCCc1ccc(O)c(O)c1 [Dopamine·HCl] | inactive: -0.368 |
| NCCc1ccc(O)c(O)c1 [Dopamine hydrochloride] | inactive: -0.316 |
| CC(=O)SCC(=O)c1ccc(NS(=O)(=O)c2ccc(OCCCN(C)C)cc2)nc1 | inactive: -0.863 |
| C[C@H](Cc1ccc(O)c(O)c1)[C@@H](C)Cc1ccc(O)c(O)c1 | inactive: 0.215 |
| C[C@H](O)[C@H](O)[C@H]1CNc2nc(N)[nH]c(=O)c2N1 [(6R)-5,6,7,8-Tetrahydro-L-biopterin dihydrochloride] | inactive: -1.09 |
| C[N+](C)(C)C[C@H](O)CC(=O)[O-] [Levocarnitine] | inactive: 0.61 |

A second format for some results above:
Compound	Z-score
COc1ccc(Br)cc1S(=O)(=O)NC(=O)/C=C/c1ccccc1Cc1ccc2ccccc2c1	inactive: -0.205
CCCCCC(O)CCCC(=O)O (configuration not stated) [5-hydroxydecanoic acid sodium salt]	inactive: -0.394
C[C@H](CS)C(=O)N1CCC[C@H]1C(=O)O [Captopril]	inactive: -0.038
C[C@H](Cc1ccc(O)c(O)c1)[C@@H](C)Cc1ccc(O)c(O)c1	inactive: 0.215
C[N+](C)(C)C[C@H](O)CC(=O)[O-] [Levocarnitine]	inactive: 0.61
